# Reference: PubChem BioAssay AID662 (National Center for Advancing Translational Sciences (NCATS), 2007)
# The list shows a part of the results. These are further read-outs of the screen, such as a control signal, another cell line or another target. No call is given for them. The list favours compounds with an active or inconclusive main result. Potencies come from curve fits of mixed quality, noted in brackets.
# Assay: Cell signaling CRE-BLA (Fsk stim)
# Details: CHO CRE-bla reporter (cAMP response element driving beta-lactamase), forskolin EC10, beta-lactamase ratio; measured here: 460 nm blue channel
# Summary of the method: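 Modulation of forskolin-driven signalling is measured in CHO cells carrying a CRE-controlled beta-lactamase reporter. Cells are stimulated with EC10 NKH 477 in the presence of titrated compound for 3 h at 37 °C, then loaded with CCF4 for 2 h at room temperature.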
row,Compound,AC50
1,CCC(C)(C(=O)NC1CCCC1)N(C(=O)c1cnccn1)c1c(C)n(C)n(-c2ccccc2)c1=O (configuration not stated),"12.6 µM [falling, partial curve, poor fit]"
2,Cc1c2c(nc3c(C(=O)NC4CC4)cnn13)CCCC2,"12.6 µM [rising, partial curve]"
3,Cc1ccc(-n2c(CSc3nc(C)cc(C)n3)nnc2SCC(=O)N2CCCC2)cc1,"20 µM [rising, single point]"
4,OCCNc1nc(C2CC2)nc2c1nnn2Cc1ccccc1Cl,"12.6 µM [rising, partial curve]"
5,O=C1CCN2C=Nc3cccc4ccc1c2c34,"10 µM [rising, partial curve]"
6,COc1ccc(CCNC(=O)CCN2C(=O)C(C)Oc3ccc(C)cc32)cc1OC (configuration not stated),"7.94 µM [rising, partial curve]"
7,O=c1c(-c2cccs2)nc2cnc(N3CCNCC3)nc2n1Cc1cccs1,"1.58 µM [rising, full curve]"
8,Cc1cc(NC(=O)c2cc3nc4c(c(C(F)(F)F)n3n2)CCc2ccccc2-4)no1,"0.501 µM [rising, full curve]"
9,CCCc1cc(=O)n2c(nc3ccccc32)[nH]1,"12.6 µM [rising, partial curve]"
10,CCOCCCNC(=O)c1c[nH]c2ccc(S(=O)(=O)Nc3cccc(OC)c3)cc2c1=O,"0.00316 µM [falling, full curve, poor fit]"
11,CCC(C)OC(=O)C1=C(C)NC(=O)NC1c1ccc(F)cc1 (configuration not stated),"10 µM [rising, single point]"
12,Cc1nc2cnc(Nc3ccccc3)nc2n(C2CC2)c1=O,"6.31 µM [rising, partial curve]"
13,CCOc1ccc(CCNS(=O)(=O)c2cnc[nH]2)cc1OCC,"5.01 µM [rising, partial curve]"
14,Cc1nn(-c2ccc(F)cc2)c2sc(C(=O)N3CCCCCC3)cc12,"1.26 µM [rising, partial curve]"
15,COCCNC(=O)c1nn(-c2cc(OC)cc(OC)c2)c(=O)c2ccccc12,"15.8 µM [rising, partial curve]"
16,CN(C(=O)c1cnccn1)c1nnc(-c2cccnc2)s1,"0.794 µM [falling, single point]"
17,CC1Cc2ccccc2N1c1ncnc2c1nnn2Cc1ccccc1 (configuration not stated),"5.01 µM [rising, single point]"
18,CCOC(=O)c1cnn2c(C(F)(F)F)cc(-c3cn(C)nc3C)nc12,"10 µM [rising, partial curve]"
19,COc1ccc(-n2c(Cc3cccn3C)nnc2SCC(=O)Nc2ccc3c(c2)OCO3)cc1,"7.94 µM [falling, partial curve]"
20,CN1CCN(c2ncc3nc(-c4ccccc4)c(=O)n(C)c3n2)CC1,"12.6 µM [rising, partial curve]"
21,CCOC(=O)C1CCN(c2c(NCc3ccc(C(=O)NC(C)CC)cc3)c(=O)c2=O)CC1 (configuration not stated),"12.6 µM [rising, partial curve]"
22,CCOC(=O)Nc1ccc2c(c1)N(C(=O)CCN(C)C)c1ccccc1S2,"10 µM [falling, partial curve]"
23,COCCCNC(=O)C(F)(F)C(F)(F)C(=O)NCCCOC,"5.01 µM [falling, single point]"

row,Compound,AC50
1,Cc1nn(-c2ccccc2)c(-c2ccccc2)c1C(=O)O,"0.00316 µM [falling, full curve, poor fit]"
2,CCOc1ccc(OCC)c(NC(=O)C2CCN(S(=O)(=O)c3cnc[nH]3)CC2)c1,"0.631 µM [falling, full curve, poor fit]"
3,O=C(NCCCN1CCCC1)c1cccc(N2CCCC2=O)c1,"2.51 µM [falling, partial curve]"
4,CCN(CC)S(=O)(=O)c1ccc2c(c1)nc(CCC(=O)OCc1c(C)noc1C)n2C,"3.16 µM [rising, partial curve]"
5,C=CCSc1nc2ccccc2n1Cc1nnc(-c2cccs2)o1,"15.8 µM [rising, single point]"
6,O=C(CSc1ccc2nnc(-c3ccncc3)n2n1)Nc1ccc2c(c1)OCCO2,"10 µM [rising, partial curve]"
7,CCCn1c(=O)[nH]c(=O)c2c1nc(-c1ccccc1OC(F)F)n2CCOC,"2.51 µM [rising, full curve]"
8,CCOc1ccccc1N1CCN(C(=O)c2cccc(-c3ccc(O)cc3)c2)CC1,"15.8 µM [falling, single point]"
9,Cc1cc(C)nc(NC(=O)c2c(-c3c(Cl)cccc3Cl)noc2C)n1,"25.1 µM [rising, single point]"
10,CCn1c2ccccc2c2cc(/C=N/n3cnnc3)ccc21,"10 µM [rising, partial curve]"
11,CC[C@@H](C)[C@H](NC(=O)OC(C)(C)C)c1nnc(S(=O)(=O)Cc2cc(C)ccc2C)o1,"7.94 µM [falling, partial curve]"
12,COc1ccc(C(=O)CSc2nnc(-c3cnccn3)n2Cc2ccco2)cc1,"10 µM [rising, partial curve]"
13,CCOC(=O)c1ccccc1NC(=O)c1ccc2c(=O)n3c(nc2c1)CCCCC3,"0.631 µM [rising, partial curve]"
14,CC1Cc2ccccc2N1C(=O)COc1cccc(-n2cnnn2)c1 (configuration not stated),"25.1 µM [rising, single point]"
15,C(=N\c1nccs1)/c1c[nH]c2ccccc12,"0.00398 µM [falling, full curve, poor fit]"
16,N#CCCn1c(=O)c(-c2ccc(F)cc2)nc2cnc(OCc3ccccc3)nc21,"25.1 µM [rising, single point]"
17,COc1cccc(Nc2ncc3nc(-c4ccc(F)cc4)c(=O)n(CCC#N)c3n2)c1,"3.98 µM [rising, full curve]"
18,COc1ccc(-c2nc3cnc(N4CCOCC4)nc3n(CCC#N)c2=O)cc1,"3.98 µM [rising, partial curve]"
19,COc1ccc(-c2nc3cnc(N(C)C)nc3n(CCc3ccccc3)c2=O)cc1,"0.398 µM [rising, full curve]"
20,COc1cccc(C2=CC(c3cc(OC)ccc3OC)n3nnnc3N2)c1 (configuration not stated),"7.94 µM [rising, partial curve]"
21,Cc1nn2c3cc(N4CCOCC4)ccc3nc2c2ccccc12,"0.631 µM [rising, full curve]"
22,CC(=O)Oc1ccc(N2C(=O)C3C(C2=O)C2(C)C=CC3(C)O2)cc1 (configuration not stated),"3.98 µM [falling, full curve]"
23,COc1ccc(-c2nc3cnc(N(C)C)nc3n(CCC#N)c2=O)cc1,"3.98 µM [rising, partial curve]"

row,Compound,AC50
1,Oc1ccc2cccnc2c1,"0.1 µM [falling, partial curve]"
2,CCOc1cc(NS(=O)(=O)CC)c(OCC)cc1NC(=O)c1ccco1,"12.6 µM [rising, partial curve]"
3,CCCn1c(NC(=O)c2ccccc2)nc2ccccc21,"3.16 µM [falling, partial curve]"
4,CCOc1ccc(C2C=C(c3ccc(C)cc3)Nc3ncnn32)cc1 (configuration not stated),"10 µM [rising, partial curve]"
5,CCOC(=O)Cn1nc(C)c(-c2ccccc2)c1N,"20 µM [falling, single point]"
6,CN1CCN(c2ncc3nc(-c4cn(C)c5ccccc45)c(=O)n(CCc4ccccc4)c3n2)CC1,"3.16 µM [rising, full curve]"
7,CN1CCN(C(=O)c2ccc3c(=O)n(CCc4ccccc4)c(=S)[nH]c3c2)CC1,"0.126 µM [falling, full curve]"
8,N=c1c2c(n(Cc3ccccc3)c3c1CCC3)CCC2,"0.794 µM [falling, partial curve]"
9,CCOC(=O)C1=C(N)Oc2cc(C)n(CCc3ccc(OC)c(OC)c3)c(=O)c2C1c1cccnc1 (configuration not stated),"1 µM [rising, full curve]"
10,C[C@]12CCC3c4ccc(O)cc4CCC3[C@@H]1CCC2=O (some centres not stated),"12.6 µM [falling, single point]"
11,COc1ccc(-c2noc(CN(C(=O)c3ccc(OC(C)=O)cc3)C(C)C)n2)cc1OC,"25.1 µM [rising, single point]"
12,COc1cccc(Cn2c(=O)c(CCc3ccccc3)nc3cncnc32)c1,"0.2 µM [rising, full curve, poor fit]"
13,Cc1cccc(CN2CCN(C(=O)c3ccccc3F)CC2)c1,"0.0316 µM [falling, full curve, poor fit]"
14,O=S(=O)(/N=C(/Nc1cc(N2CCOCC2)ncn1)c1ccc(F)cc1)c1ccccc1,"20 µM [rising, single point]"
15,CCOC(=O)N1CCC(NC(=O)CCCN2C(=O)CSc3ncccc32)CC1,"0.316 µM [falling, full curve]"
16,CC(C)c1nc(N2CCCC2)c(C#N)c2c1CCCC2,"15.8 µM [rising, single point]"
17,O=C(c1ccc(Br)o1)N1CCN(C/C=C/c2ccccc2)CC1,"25.1 µM [rising, single point]"
18,CCN1CCc2c(sc(N)c2C#N)C1,"12.6 µM [rising, partial curve, poor fit]"
19,COc1cc(OC)cc(-c2nc3nc(C)c(CCC(=O)NCc4ccco4)c(C)n3n2)c1,"0.00316 µM [falling, full curve, poor fit]"
20,O=S(=O)(Nc1ccc(-c2cn3ccsc3n2)cc1)c1ccc2c(c1)OCCO2,"10 µM [rising, single point]"
21,O=C1CC(c2ccco2)Cc2nc(Nc3nc(-c4ccccc4)c4ccccc4n3)ncc21 (configuration not stated),"1.26 µM [rising, single point]"

# By substructure: the compounds so far with a CF3 group
row,Compound,AC50
8,Cc1cc(NC(=O)c2cc3nc4c(c(C(F)(F)F)n3n2)CCc2ccccc2-4)no1,"0.501 µM [rising, full curve]"
18,CCOC(=O)c1cnn2c(C(F)(F)F)cc(-c3cn(C)nc3C)nc12,"10 µM [rising, partial curve]"
